Measured values: PubChem BioAssay AID2551 (National Center for Advancing Translational Sciences (NCATS), 2010)
The whole screen tested about 310,000 compounds, of which about 17,000 (5.5%) were called active. The shares of active, inactive and inconclusive entries below differ from those in the screen. Calls come from the whole dose curve; as a rule, active = well fitted inhibition curve with a large enough effect; inconclusive = small, poorly fitted or top-dose-only effect, or effect the other way; inactive = no such curve, though single readings can be large or run the other way. Potencies beside an inconclusive call are fits to weak or partial responses and may not hold up.

Sequences of proteins named here, by UniProt entry; tags and fusion partners are left off. A change or cut given only in a name is not applied to a line headed by its entry.
UniProt P51450: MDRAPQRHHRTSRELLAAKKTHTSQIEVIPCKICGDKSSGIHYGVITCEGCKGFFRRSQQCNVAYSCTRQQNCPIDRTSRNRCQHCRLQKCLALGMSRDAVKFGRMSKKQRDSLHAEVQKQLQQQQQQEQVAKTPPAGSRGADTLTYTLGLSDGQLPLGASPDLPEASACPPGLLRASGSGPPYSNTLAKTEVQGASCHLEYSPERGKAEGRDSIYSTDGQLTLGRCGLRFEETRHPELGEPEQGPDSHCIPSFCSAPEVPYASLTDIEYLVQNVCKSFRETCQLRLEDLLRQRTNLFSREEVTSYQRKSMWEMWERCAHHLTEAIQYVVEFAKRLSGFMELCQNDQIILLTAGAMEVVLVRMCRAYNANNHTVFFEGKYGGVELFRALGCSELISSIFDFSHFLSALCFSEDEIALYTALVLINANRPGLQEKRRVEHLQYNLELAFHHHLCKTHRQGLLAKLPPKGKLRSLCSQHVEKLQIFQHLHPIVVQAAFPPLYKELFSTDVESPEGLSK

target: Nuclear receptor ROR-gamma (Mus musculus) (UniProt P51450); assay: qHTS for inhibitors of ROR gamma transcriptional activity; conditions: Drosophila S2 Gal4-RORgamma UAS-luciferase reporter, 20 h; activity change, negative = inhibition: at 53.6 µM (top of the series); note: nearly all actives have a fitted effect of over 60% in size
Outline: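 Read-out: Photinus luciferase luminescence; inhibitors lower reporter signal. Insect Schneider cells with Gal4-ROR gamma fusion under metallothionein promoter, UAS reporter; 700 uM final copper sulfate induction, 20 hr, ambient temperature.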
% is set by controls: 0 for no effect and ±100 for the full control effect; potency is the fitted concentration of half-maximal effect.

Potency, active:
O=C(Nc1nc2ccccc2n1Cc1ccc(Cl)cc1)c1ccco1 0.708 µM, O=C(N/N=C/C1CC2C=CC1C2)c1ccccc1O (stereo not drawn) 4.47 µM, Cc1ccc2sc(-c3ccc(NC(=O)CCN4C(=O)c5ccccc5C4=O)cc3)nc2c1 1.12 µM, Oc1ccc(CN2CCCc3ccccc32)c2cccnc12 7.94 µM, O=C(COc1ccccc1)N/N=C/c1ccc([N+](=O)[O-])o1 10 µM, CCn1cc(/C=C/C(=O)c2ccc(O)cc2)c(C)n1 2.24 µM, CCC(Sc1nnc(-c2ccc(C)c(Cl)c2)n1CC)C(=O)Nc1nccs1 (stereo not drawn) 12.6 µM, S=C1NC[C@H](CC2CCCCC2)N1CC1CCCCC1 0.891 µM, COc1ccc(C(=O)NC(=S)Nc2ccc([N+](=O)[O-])cc2C)cc1OC 15.8 µM, CC(=O)C(C(C)=O)c1c(Cl)c(O)c(O)c2c(C(=O)c3ccccc3)coc12 15.8 µM, NNC(=O)c1cccc(COc2ccc3c(c2)CCC3)c1 3.16 µM, CCOc1ccc(C(=O)Nc2ccccc2C(=O)O)cc1 6.31 µM, O=C(NNC(=O)c1cnccn1)c1ccc(Cl)cc1 8.91 µM, CCCC(=O)Nc1nnc(-c2ccc(Cl)s2)o1 8.91 µM, CNC(=S)NCCC(c1ccccc1)c1ccccc1 7.08 µM

Potency, inconclusive:
CC(C)(C)c1ccc(C(=O)N2CCC(C(=O)c3ccccc3)CC2)cc1 35.5 µM [activator, single point], CC(C)n1c(=S)[nH]c2scc(-c3cccs3)c2c1=O 0.447 µM [inhibitor, single point], O=C1C=CCC(/C=C/c2ccccc2)O1 (stereo not drawn) 0.224 µM [activator, full curve], Cn1c(-c2ccccc2)c(CCO)c2ccccc21 25.1 µM [activator, single point], COc1cc(/C=C2\SC(=N)N(c3ccc(F)cc3)C2=O)ccc1O 6.31 µM [inhibitor, full curve, poor fit], C=CCOc1ccc2nc(NC(=O)OC)[nH]c2c1 3.55 µM [activator, single point], CCOC(=O)c1c(N2C(=O)C3C4C=CC(C4)C3C2=O)sc2c1CCC(C)C2 (stereo not drawn) 17.8 µM [activator, single point], COC(=O)CSC1=C(C#N)C(c2ccc(Cl)cc2)C(C(=O)OC)C(=O)N1 (stereo not drawn) 2.82 µM [inhibitor, partial curve], C=CCN(CC=C)C(=S)Nc1ccccc1 11.2 µM [inhibitor, partial curve], CCOc1ccc(CC2S/C(=N/N=C/c3ccco3)NC2=O)cc1 (stereo not drawn) 6.31 µM [inhibitor, single point], CCN(CC)c1ccc(NC(=O)COc2ccccc2C#N)cc1S(=O)(=O)Nc1ccc(OC)cc1 6.31 µM [activator, partial curve], COc1cc2c(cc1NC(=O)CN(C)Cc1cccc(OC)c1OC)oc1ccccc12 5.01 µM [activator, partial curve], CCc1ccc(-c2csc3ncn(CC(=O)NCc4ccco4)c(=O)c23)cc1 12.6 µM [activator, partial curve, poor fit], O=C(/C=C/Sc1ccccc1)c1ccccc1 0.251 µM [activator, full curve, poor fit], CC1CN=C(NC(=O)c2cccc([N+](=O)[O-])c2)S1 (stereo not drawn) 11.2 µM [inhibitor, single point], Cc1cccc(NC(=S)NC2CCN(Cc3ccccc3)CC2)c1C 3.16 µM [inhibitor, single point], Cc1cccc(NC(=O)/C=C/c2ccc3c(c2)OCO3)n1 12.6 µM [inhibitor, partial curve], CC(C)OC(=O)CSc1nnc(CNc2ccc(Cl)cc2)n1Cc1ccccc1 12.6 µM [activator, partial curve], COc1ccc(CCc2nnc(CCC(=O)N(C)Cc3ccnc4ccccc34)o2)cc1 2.51 µM [activator, partial curve, poor fit], Cc1cc(C)nc(N2CCCC(C(=O)Nc3nnc(C(C)C)s3)C2)n1 (stereo not drawn) 1.26 µM [activator, partial curve, poor fit], CCOc1ccc(C(C(=O)NCC2CCCO2)N(C(=O)c2snc(C(N)=O)c2N)c2ccc3c(c2)OCCO3)cc1 (stereo not drawn) 14.1 µM [activator, partial curve], O=C(NCCN1CCN(C(=O)c2cccc(Br)c2)CC1)C(=O)Nc1ccc(Br)cc1 7.94 µM [activator, partial curve], Cc1cc2cc(C=C(C#N)C#N)c(Cl)nc2cc1C 28.2 µM [inhibitor, single point], CCc1nnc(NS(=O)(=O)c2ccc(N/C=C\C(=O)c3ccc4ccccc4c3)cc2)s1 14.1 µM [activator, single point], CSc1nsc(SCC(=O)Nc2nc3ccc(C)cc3s2)n1 31.6 µM [inhibitor, single point], O=C(Nc1ccc(Br)cn1)c1cccc(C(=O)Nc2ccc(Br)cn2)c1 3.16 µM [inhibitor, full curve], Cc1occc1C(=O)NNC(=O)c1ccccc1C(=O)O 25.1 µM [inhibitor, single point], CCNS(=O)(=O)c1ccc(NC(=O)c2cc(C(F)(F)F)nn2C)cc1 3.16 µM [activator, partial curve, poor fit], CCOc1ccc(NC(=O)Nc2ccc3nccnc3c2)cc1 11.2 µM [activator, partial curve, poor fit], CN1c2ccccc2C(C)(C)C12CC(c1ccc(Cl)c(S(=O)(=O)N3CCCC3)c1)=NO2 (stereo not drawn) 6.31 µM [activator, single point], O=C(c1ccccc1)C1C(c2ccccc2)C1[N+](=O)[O-] (stereo not drawn) 35.5 µM [activator, single point], CCCC(=O)OCC(=O)Nc1ccccc1C#N 0.316 µM [inhibitor, partial curve, poor fit], O=C(Nc1ccc(N2C(=O)C3CCCCC3C2=O)cc1Cl)c1cccs1 (stereo not drawn) 3.16 µM [activator, single point], Cc1onc(-c2c(F)cccc2Cl)c1C(=O)Nc1nc2c(s1)CCCC2 35.5 µM [inhibitor, single point], CCOc1ccc(NC(=S)N2c3ccccc3CC2C)cc1 (stereo not drawn) 14.1 µM [inhibitor, single point], COc1ccc(/C=C/C(=O)Nc2c(C)nn(C)c2C)cc1COc1ccc(Br)cc1 25.1 µM [inhibitor, single point], S=C1SCN(Cc2ccccn2)CN1Cc1ccco1 15.8 µM [inhibitor, single point], CCOC(=O)c1[nH]nc(N)c1NC(=O)c1ccc(Cl)cc1Cl 17.8 µM [activator, partial curve]

Potency, inactive:
CCc1ccc(C(=O)c2cnc3ccc(OC)cc3c2N2CCN(CC)CC2)cc1, Cc1cc(=O)cc(C)n1-c1ccc(Cl)c(Cl)c1, Cc1cccc(C(=O)N2CCC(=O)N(C(COCc3ccc(Cl)cc3)Cc3ccccc3)CC2)c1 (stereo not drawn), CCOC(=O)C1(CCOc2ccccc2)CCN(S(=O)(=O)N(C)C)CC1, COc1ccc(N/N=C(/C(C)=O)N2CCCc3ccccc32)cc1, Cc1cc2c(SCC(=O)NCC3CCCO3)ncnc2s1 (stereo not drawn), COc1ccc(-c2[nH]ncc2CN2CCC(O)(c3ccc(Cl)cc3)CC2)cc1, COc1cccc(-n2ccnc2SCC(=O)Nc2ccccc2)c1, Nc1cc(=O)[nH]c(=O)n1Cc1ccco1, Cc1c(C(=O)O)cccc1-c1ccc(/C=N/n2cnnc2)o1, O=C(O)CCc1nc(-c2ccccc2)no1, CN(Cc1ccccc1)S(=O)(=O)c1ccc2[nH]c(=O)ccc2c1, O=[N+]([O-])c1cnc2ccccc2c1, COc1cccc(NC(=S)N2CCc3cc(OC)c(OC)cc3C2)c1, CCc1nc2c(cnn2-c2ccc(F)cc2)c(=O)n1-c1ccc(N2CCC(C)CC2)cc1, COc1ccc(C(=O)Oc2cc(C)[nH]c(=O)c2[N+](=O)[O-])cc1, COC(=O)C(N)Cc1ccc(O)cc1 (stereo not drawn), COc1ccccc1C(=O)NCC(=O)OCC(=O)Nc1cccc(S(=O)(=O)N2CCCCCC2)c1, COCCOc1ccc(C(F)(F)F)cc1N, CCOc1ccccc1CN1CCN(Cc2c[nH]c3ccccc23)CC1CCO (stereo not drawn), Cc1ccc(NC(=O)CSC2=NN3CCCC(=O)N=C3S2)c(C)c1, COc1ccccc1-c1nnc(SCCN2CCOCC2)n1-c1ccc(C)cc1, Cc1ccnc(N2C3CCC2CC(O)(c2ccccc2)C3)n1 (stereo not drawn), Cc1cc(C)c(S(=O)(=O)c2ccccc2)c(Cl)n1

Activity change, negative = inhibition, inactive:
CC(C)COCC(O)CCC(=O)NNC(=S)Nc1ccccc1 (stereo not drawn) -35.4% [at 10 µM]
